Assay results: PubChem BioAssay AID1296 (Columbia University Molecular Screening Center, 2008)
The whole screen tested about 130,000 compounds, of which about 1,000 (0.77%) were called active. Inconclusive results, whose numbers are uncertain, are shown with a selection of clear calls.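 How the source made its calls: active means activation at 2 µM above a set limit, confirmed on inspection of the cell images; inconclusive means above the set limit but not confirmed on image inspection; inactive means the rest.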

Experiment: activators of insulin promoter-driven GFP, primary screen, imaging, TRM-6 cells, eGFP reporter, cell count (AID 1296);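 further: share of cells whose green reporter signal exceeds an intensity cutoff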
Settings: at 2 µM, stronger effect = higher value, plate-scaled: unstimulated 0, stimulated control 100
In short: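 Test system: human fetal islet-derived TRM-6 cells with tamoxifen-inducible insulin promoter–eGFP reporter; schedule: overnight tamoxifen, then two-day compound incubation at 37 °C; measured by: high-content imaging of fixed cells with Hoechst nuclear stain; evaluation: percent cells above green-intensity threshold, converted to percent activation versus plate controls; control set: stimulated and unstimulated wells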
In the case of `Cc1[nH]c2ccc(-c3n[nH]c(=S)n3-c3ccccc3)cc2c1C`, the activation is reported as inactive: -9.38%.
For `CCOC(=O)/C(=C\C=C1/Sc2cc(OCC)c(OCC)cc2N1CC)C(C)=O`, the activation was inconclusive: 245%.
In the case of `O=C(CCCn1c(=O)[nH]c2ccsc2c1=O)N1CCN(c2ccccn2)CC1`, the activation is reported as inconclusive: 76.3%.
In the case of `Cc1cccc(C(=O)Oc2ccc(/C=N/O)cc2)c1`, the activation is reported as inconclusive: 412%.
With `COc1ccc(NC(=O)Cn2c(=O)n(Cc3ccco3)c(=O)c3ccccc32)cc1` the activation was inconclusive: 471%.
For `Cc1ccc(NC(=O)COC(=O)COc2ccc(Cl)cc2)c([N+](=O)[O-])c1`, the activation was inconclusive: 264%.
In the case of `CCSc1nnc(Cn2c(=O)sc3ccccc32)n1-c1ccccc1C`, the activation is reported as inconclusive: 188%.
With `CCn1c(SCC(=O)N2CCCC(C)C2)nnc1-c1ccc(S(=O)(=O)N2CCN(C)CC2)cc1` (centres undefined) the activation was active: 80.7%.
In the case of `C/C(=N/OC(=O)C1CC12CCC2)c1ccc(Br)cc1` (centres undefined), the activation is reported as inactive: 7.14%.
With `O=C(C1CC(=O)N(c2ccccc2)C1)N1CCN(C2=NS(=O)(=O)c3ccccc32)CC1` (centres undefined) the activation was inconclusive: 494%.
In the case of `COc1cccc(C(C(=O)NC2CCCCC2)N(C(=O)c2ccccn2)c2cccnc2)c1` (centres undefined), the activation is reported as active: 627%.
With `O=C(OCC(=O)N1CCN(C(=O)c2ccco2)CC1)c1cn(-c2ccccc2)nc1-c1ccccc1` the activation was inconclusive: 126%.
With `Cc1ccc2nc(-c3sc4nc(C)ccc4c3N)[nH]c2c1` the activation was inconclusive: 452%.
For `CN(C)c1ccc(/C=C(\C#N)C(=O)Nc2nc3c(s2)CCN(Cc2ccccc2)C3)cc1`, the activation was inconclusive: 75%.
In the case of `COc1ccc(-n2c(C)cc(/C=C3\SC(=S)N(Cc4ccco4)C3=O)c2C)cc1`, the activation is reported as active: 245%.
With `C/C(=N\NC(=O)c1ccccc1NC(=O)c1ccc(Cl)cc1)c1ccncc1` the activation was inconclusive: 82.3%.
With `O=C(NCc1ccco1)C(=O)c1cn(CC(=O)N2CCCCCC2)c2ccccc12` the activation was inconclusive: 200%.
In the case of `COC(=O)c1ccc(OCC(=O)NC(C)(C)C)cc1`, the activation is reported as inconclusive: 155%.
With `O=C(/C=C/c1ccco1)NC(=S)NNC(=O)c1ccco1` the activation was inconclusive: 403%.
For `COC(=O)c1ccc2nc(-c3ccc(S(C)(=O)=O)cc3)cn2c1`, the activation was inconclusive: 233%.
With `CC(=O)c1cn(CC(=O)Nc2ccc(C)c(C)c2)c2ccccc12` the activation was active: 533%.
For `Cc1oc(-c2ccccc2Cl)nc1CSc1nc2c(c(=O)[nH]1)CCC2`, the activation was inactive: -7.32%.
In the case of `CCOC(=O)N1CCN(C(=O)COc2ccc(S(=O)(=O)NC3CCCCC3)cc2C)CC1`, the activation is reported as inactive: 123%.
For `Cc1ccc(S(=O)(=O)c2c(C)cc(C)nc2N2CCCC2)cc1`, the activation was inconclusive: 215%.
